Measured data: PubChem BioAssay AID602196 (INSERM, 2012)
In all, the deposit lists about 23,000 reagents; below is a random part of them. In the full data, 455 (2%) got an active call. 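Active includes both protection and sensitisation; some change values fall well beyond the stated -50 to +50 range.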 Further read-outs or replicates are left out here. Not stated in the record: the amount of reagent.

Purpose: 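Knock-downs that protect lung cancer cells from cisplatin or sensitise them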
Cells: human A549 lung cancer cells
Reagent: siRNA pair against human genes
Duration: 48 h transfection before cisplatin; time from cisplatin to read-out not stated
Conditions: cisplatin at a dose killing half of control-siRNA cells; exact dose and duration not given
Read-out: 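Shift in cisplatin death relative to control siRNA, from -50 (all cells die) to +50 (no cells die); siRNAs harmful on their own scored 0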
Scale: two-siRNA summed score (-2 to +2): higher = both siRNAs protect from cisplatin killing; -2 means both sensitise; mean protection from cisplatin (shift in death): higher = protection from cisplatin killing
Rule for the call: 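siRNAs harmful alone (LDH or WST-1) get 0; others get +1 for less and -1 for more cisplatin killing; genes are active when the two siRNAs give the same sign, summing to ±2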
Meaning of the calls: active = both siRNAs shift cisplatin killing the same way; inactive = no consistent shift, or siRNA harmful alone

{"gene knocked down": "AP4M1", "two-siRNA summed score (-2 to +2)": 0, "mean protection from cisplatin (shift in death) (%)": -0.3, "Outcome": "inactive"}
{"gene knocked down": "MGC12966", "two-siRNA summed score (-2 to +2)": 0, "mean protection from cisplatin (shift in death) (%)": -2.1, "Outcome": "inactive"}
{"gene knocked down": "VPS37C", "two-siRNA summed score (-2 to +2)": 0, "mean protection from cisplatin (shift in death) (%)": 6.4, "Outcome": "inactive"}
{"gene knocked down": "FAAP24", "two-siRNA summed score (-2 to +2)": 0, "mean protection from cisplatin (shift in death) (%)": 6.5, "Outcome": "inactive"}
{"gene knocked down": "HPS4", "two-siRNA summed score (-2 to +2)": 0, "mean protection from cisplatin (shift in death) (%)": 5.7, "Outcome": "inactive"}
{"gene knocked down": "DDX25", "two-siRNA summed score (-2 to +2)": 0, "mean protection from cisplatin (shift in death) (%)": 4.2, "Outcome": "inactive"}
{"gene knocked down": "NOC4L", "two-siRNA summed score (-2 to +2)": -1, "mean protection from cisplatin (shift in death) (%)": -7.4, "Outcome": "inactive"}
{"gene knocked down": "SERPINA5", "two-siRNA summed score (-2 to +2)": 1, "mean protection from cisplatin (shift in death) (%)": 6, "Outcome": "inactive"}
{"gene knocked down": "PIANP", "two-siRNA summed score (-2 to +2)": -1, "mean protection from cisplatin (shift in death) (%)": -5.2, "Outcome": "inactive"}
{"gene knocked down": "PTTG2", "two-siRNA summed score (-2 to +2)": 0, "mean protection from cisplatin (shift in death) (%)": -13.8, "Outcome": "inactive"}
{"gene knocked down": "DRD5", "two-siRNA summed score (-2 to +2)": 0, "mean protection from cisplatin (shift in death) (%)": -3, "Outcome": "inactive"}
{"gene knocked down": "NUAK1", "two-siRNA summed score (-2 to +2)": 1, "mean protection from cisplatin (shift in death) (%)": 8.5, "Outcome": "inactive"}

Copied from the list.
PIANP, two-siRNA summed score (-2 to +2) → -1
SERPINA5, two-siRNA summed score (-2 to +2) → 1
